According to patent US20220144957A1 (IMMUNECENT BIOTECHNOLOGY, published 2022):

Legend:
[1] = molecular target: IFNAR1-Δaa331-432 (human); experiment: flow cytometry, 293T cells overexpressing the IFNAR1 variant, percentage of PE-positive cells [B]
[2] = molecular target: IFNAR1-Δaa32-126, Δaa331-432 (human); experiment: as above
IFNAR1-Δaa32-126 (human) [3] = experiment: as above
[4] = molecular target: IFNAR1-Δaa331-432 (human); experiment: flow cytometry on 293T cells expressing the variant
[5] = molecular target: IFNAR1-Δaa32-126, Δaa331-432 (human); experiment: as above
IFNAR1-Δaa32-126 (human) [6] = experiment: as above

Measured: binding

B1: anti-human IFNAR1 monoclonal antibody 10C5 (antibody, V domains shown)
VH: QVQLQQPGTELVKPGSPVKLSCKASGYTFTSFWLNWVQQRPGRGLEWIGKIDPSDSEIRYNQKFKDKATLTVDKSSNTAYIQLSSLTSEDSAVYYCARGGGIYYDYDGAMDYWGQGTSVTVSS
VL: DIQMTQSSSSFSVSLGDRLTITCKASEVIYNRLAWFQQKPGNAPRLLISGATSLETGVPSRFSGSGSRKDYTLSISSLQTEDVATYYCQQYWSSPFTFGSGTKLEIK
notes: Mouse monoclonal antibody from hybridoma CGMCC No. 16287
binds: all assays above

B2: anti-human IFNAR1 monoclonal antibody 7G4 (antibody, V domains shown)
VH: QVQLQQPGAELVKPGAPVKLSCKASGYTFTSYWMNWVRQRPGRGLEWIGKIDPSDSETHFNQKFRDKATLTVDKSSTTAYIQLSSLTSEDSAVYYCARGGRISFDYDAALDYWGQGTSVTVSS
VL: DILMTQSSSSFSVSLGDRVTITCKSSEVIYNRLAWFQQKPGNAPRLLISGATTLESGFPSRFSGSGSGKDYTLSITSLQIEDVSTYYCQQYWNKPFTFGSGTKLEVK
notes: Mouse monoclonal antibody from hybridoma CGMCC No. 16286
binds: all assays above

No constants are given. Whether binding was seen depends on the method and setting. A result given as binding can be weak or reduced; the word gives no strength.
